From PMC7185714, “Structure and conformational cycle of a bacteriophage-encoded chaperonin” (PLoS ONE, 2020)
These are yes or no findings as the source states them, for the method shown. Some binding calls cover weakened binding; strength is not graded here.

The chains behind the UniProt entries cited, without tags or fusion partners.
UniProt P0A6F5: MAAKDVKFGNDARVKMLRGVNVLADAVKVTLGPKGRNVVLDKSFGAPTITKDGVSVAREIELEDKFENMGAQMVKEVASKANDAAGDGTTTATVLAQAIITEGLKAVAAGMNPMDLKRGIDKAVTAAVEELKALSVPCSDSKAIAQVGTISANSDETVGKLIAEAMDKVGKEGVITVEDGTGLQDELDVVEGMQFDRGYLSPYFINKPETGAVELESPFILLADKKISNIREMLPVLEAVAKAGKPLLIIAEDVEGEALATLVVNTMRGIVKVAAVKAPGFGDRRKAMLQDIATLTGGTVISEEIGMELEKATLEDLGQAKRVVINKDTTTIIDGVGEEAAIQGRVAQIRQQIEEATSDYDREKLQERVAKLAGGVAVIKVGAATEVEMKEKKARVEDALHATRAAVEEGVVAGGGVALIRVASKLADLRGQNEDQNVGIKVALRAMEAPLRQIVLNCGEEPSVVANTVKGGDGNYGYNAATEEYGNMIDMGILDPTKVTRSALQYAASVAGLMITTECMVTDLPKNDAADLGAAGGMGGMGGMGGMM

Biological target: GroEL from E. coli (E. coli, UniProt P0A6F5 1-548)
Experiment: SEC; Rho refolding reaction with GroEL/GroES in the absence of ATP, SEC, SDS-PAGE and anti-Rho immunoblot; both purified

binding: binds
B1: rhodanese (Rho), denatured in 6 M guanidinium-HCl (protein, UniProt P00586 1-297)
chain: MVHQVLYRALVSTKWLAESVRAGKVGPGLRVLDASWYSPGTREARKEYLERHVPGASFFDIEECRDKASPYEVMLPSEAGFADYVGSLGISNDTHVVVYDGDDLGSFYAPRVWWMFRVFGHRTVSVLNGGFRNWLKEGHPVTSEPSRPEPAIFKATLNRSLLKTYEQVLENLESKRFQLVDSRAQGRYLGTQPEPDAVGLDSGHIRGSVNMPFMNFLTEDGFEKSPEELRAMFEAKKVDLTKPLIATCRKGVTACHIALAAYLCGKPDVAIYDGSWFEWFHRAPPETWVSQGKGGKA
